Test results taken from patent US20080181901A1.
No constants are given. Whether binding was seen depends on the method and setting. For some assays here: Binding seen in cells or lysates may run through a third protein. Some results given as binding are weak or reduced against the parent protein; the word gives no strength. For some assays here: Tags and fused reporters may be left off the sequences shown.

Sequences of proteins named here, by UniProt entry; tags and fusion partners are left off. Residues count along the entry.
UniProt P97370, residues 120-258: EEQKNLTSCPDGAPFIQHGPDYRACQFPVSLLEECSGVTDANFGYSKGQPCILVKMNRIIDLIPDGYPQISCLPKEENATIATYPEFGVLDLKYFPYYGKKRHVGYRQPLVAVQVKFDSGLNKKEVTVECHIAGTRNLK

Columns and labels:
[1] = biological target: Na,K-ATPase β1 subunit amino acids 110-273, yeast two-hybrid library clone (mouse) (UniProt P14094); assay: yeast two-hybrid screen, MONaKA as bait
[2] = biological target: Na,K-ATPase β3 subunit amino acids 120-258, yeast two-hybrid library clone (mouse) (UniProt P97370); assay: yeast two-hybrid screen, MONaKA as bait
[3] = biological target: Myc-tagged Na,K-ATPase β1 subunit C-terminal fragment (amino acids 110-273) (mouse) (UniProt P14094); assay: co-immunoprecipitation from transfected tsA201 cells, Western blot
[4] = biological target: Myc-tagged Na,K-ATPase β3 subunit C-terminal fragment (amino acids 120-258) (mouse) (UniProt P97370); assay: as above
[5] = biological target: Myc-tagged Na,K-ATPase β1 subunit C-terminal fragment (amino acids 110-273) (mouse) (UniProt P14094); assay: co-immunoprecipitation from transfected tsA201 cells, both directions
[6] = biological target: Myc-tagged Na,K-ATPase β3 subunit C-terminal fragment (amino acids 120-258) (mouse) (UniProt P97370); assay: as above
[7] = biological target: Myc-tagged full-length Na,K-ATPase β1 subunit (mouse) (UniProt P14094); assay: as above
[8] = biological target: Myc-tagged full-length Na,K-ATPase β1 subunit (mouse) (UniProt P14094); assay: co-immunoprecipitation from transfected tsA201 cells, anti-HA or anti-Myc IP, Western blot

binding [1]	binding [2]	binding [3]	binding [4]	binding [5]	binding [6]	binding [7]	binding [8]	Binder
binds	binds	–	–	–	–	–	–	mouse full-length MONaKA, yeast two-hybrid bait in pGBKT7 (protein) MAFMEKPPAGKVLLDDTVPLTAAVEASQSLQSHTEYIIRVQRGISAENSWQIVRRYSDFDLLNNSLQITGLSLPLPPKKLIGNMDREFIAERQRGLQNYLNVIMANHVLSNCELLKKFLDPNNYSANYTEIALQQVSMFFRSEPKWEVVEPLKDIGWRIRKKYFLMKIKNQPKERLVLSWADLGPDKYLSDKDFQCLIKLLPSCVHPYIYRVTFATASESSALLIRAFNEKGTLKDLIYKAKPKDPFLKKYCNPKKTQGLELQQIKTYGRQILEALKFLHDKGFPYGHLHAANVMLDGNTCRLLDLENSLLGLPSFYRSYFTQFRKINTLESVDVHCFGHLLYEMTYGRPPDSVPVDSFPPASSLAVVAVLESTLSCEACKNGMPTVSRLLQMPLFSDVLLTTSEKPQFKIPTKLKEALRIAKECIEKRLTEEQKQIHQHRRLTRAQSHHGSEEERKRRKILARKKSKRSAVENSEEQPVKHSNSNNSGSGASSPLTSPSSPTPPSTAGLSSALPPPPPPPPPPPPPAGPSPTSATEMPAPFLPQPVNGVNRGALLSSIQNFQKGTLRKAQTCDHSAPKIG
–	–	binds	binds	binds	binds	binds	binds	HA-tagged full-length MONaKA (mouse), expressed in tsA201 cells (protein, not shown: small tags and cut ends) MAFMEKPPAGKVLLDDTVPLTAAVEASQSLQSHTEYIIRVQRGISAENSWQIVRRYSDFDLLNNSLQITGLSLPLPPKKLIGNMDREFIAERQRGLQNYLNVIMANHVLSNCELLKKFLDPNNYSANYTEIALQQVSMFFRSEPKWEVVEPLKDIGWRIRKKYFLMKIKNQPKERLVLSWADLGPDKYLSDKDFQCLIKLLPSCVHPYIYRVTFATASESSALLIRAFNEKGTLKDLIYKAKPKDPFLKKYCNPKKTQGLELQQIKTYGRQILEALKFLHDKGFPYGHLHAANVMLDGNTCRLLDLENSLLGLPSFYRSYFTQFRKINTLESVDVHCFGHLLYEMTYGRPPDSVPVDSFPPASSLAVVAVLESTLSCEACKNGMPTVSRLLQMPLFSDVLLTTSEKPQFKIPTKLKEALRIAKECIEKRLTEEQKQIHQHRRLTRAQSHHGSEEERKRRKILARKKSKRSAVENSEEQPVKHSNSNNSGSGASSPLTSPSSPTPPSTAGLSSALPPPPPPPPPPPPPAGPSPTSATEMPAPFLPQPVNGVNRGALLSSIQNFQKGTLRKAQTCDHSAPKIG
